Consider 18 molecules from publication PMC10163288.

The other results are listed elsewhere or left out.

First the molecules themselves.
B1: il10ra_site1_sap_21_mot_HHH_b2_01397_000000078_0001_23_39_H_._118502477c40609e6006f550458cdfaf_0001_0001_0000400042_0000002_0_0001 (protein)
chain: SSSSDEEQERLLELLREIFRLALRGDPEEAEKLLKEVHELAEELGDEKAREMVEDLEATLRSSSS
B2: il10ra_site1_normal_mot_HHH_b2_07938_000000207_0001_42_56_H_._HHH_b1_00305_af2_0001_0000200006_0000001_0_af2pred_0001 (protein)
chain: SSSSSSELEEHIEELVEKFGLSEEQQKRLEQLAEALKRRGISEEEIRRILEIMAKLLALGSSSSS
B3: il10ra_site1_normal_mot_HHH_b2_02116_af2_000000165_0001_41_55_H_._HHH_b2_07253_af2_0001_0000300016_0000002_0_af2pred_0001 (protein)
chain: SSSSDAEKEAAELFIRADRLLREGDEEEVEELIRQIKELAEENNDKLIRVLARILEQALGSSSSS
B4: il10ra_site1_sap_17_mot_HHH_b1_05434_000000022_0001_39_52_H_._HHH_b1_07795_af2_0001_0000300012_0000002_0_0001_af2pred_0001 (protein)
chain: SSSSDEEAAHRAFRLVRKALQISDPEEVEELLREAHELAEEANNRLLLRSIEIALKETELSSSSS
B5: il10ra_site1_normal_mot_8756ee2cf497b5429c717dfc0c0bcfd6_0001_000000186_0001_1_13_H_._HHH_b1_06454_0001_0000300028_0000001_0 (protein)
chain: SSSSSSSDVYELLREAAELNHEGNPEEARKVLEEAEELAEELGNDVFRAQIEYMLELASSSSSSS
B6: il10ra_site1_normal_mot_HHH_b2_02337_000000026_0001_38_52_H_._HHH_b1_01900_0001_0000500060_0000001_1 (protein)
chain: SSSSSEDEERVRELLEEAEEYAEQGDPEKVARLLQEATRIALQNQNQELLQLVWKVVKKLASSSS
B7: il10ra_site1_sap_23_mot_0eddeacbb14b769e73e254714f31e2f9_0001_af2_000000203_0001_37_51_H_._HHH_b2_01631_0001_0000100002_0000001_0_0001_af2pred_dldesign_0_af2pre … (protein)
chain: SSSSSPKEEEARRLIAEFRAAAAAGDEARARELYVRAARLIQELGNKDLWAELTAAAVAALSSSS
B8: il10ra_site1_normal_mot_HHH_b2_08186_000000021_0001_43_56_H_._HHH_b1_02914_0001_0000400023_0000001_0 (protein)
chain: SSSSDREERIQELLEEAEELAKEGNPEEAARLLQEAIRLAFELGDEELLKEIWEVLRKVASSSSS
B9: il10ra_site1_sap_18_mot_HHH_b2_01494_af2_000000274_0001_37_50_H_._HHH_b2_08057_0001_0000700022_0000002_0_0001_af2pred_0001 (protein)
chain: SSSSSDEEDERKVEELLEEAERVSREEASELLFKALRIAAELKNEELLRLILEVAIRIVSSSSSS
B10: il10ra_site1_sap_21_mot_HHH_b2_03220_af2_000000223_0001_23_40_H_._HHH_b1_06685_af2_0001_0001000025_0000001_0_0001_af2pred_0001 (protein)
chain: SSSSSDLREELEELLEELKEHGDPELREELRRLLLEAARLALEKNDEELAHLAVEASQLLSSSSS
B11: il10ra_site1_normal_mot_8756ee2cf497b5429c717dfc0c0bcfd6_0001_000000186_0001_1_13_H_._HHH_b2_07537_0001_0000200009_0000001_1 (protein)
chain: SSSSDLSERVMELLRKAAELENEGNPEEAEELLEEAEELARENNNDVLLHNVEYLLRVIQRSSSS
B12: il10ra_site1_normal_mot_HHH_b2_06752_000000207_0001_1_21_H_._HHH_b2_04870_af2_0001_0000500026_0000001_0_af2pred_0001 (protein)
chain: SSSSDVHKEIVEAARLALEVARRLGDEERVKQALRLLKLLAEQLNDEELKEFVEEVEEELSSSSS
B13: il10ra_site1_sap_16_mot_HHH_b2_07488_000000216_0001_1_17_H_._HHH_b1_00459_0001_0000500040_0000001_0_0001 (protein)
chain: SSSSDRRRRVYELLRRAVELDLEGDEEEAEEVLREAQELAEEANNPMMLHQVRFLLEILEGSSSS
B14: il10ra_site1_sap_24_mot_HHH_b1_02809_af2_000000277_0001_40_57_H_._HHH_b1_04583_af2_0001_0000100001_0000001_0_0001_af2pred_0001 (protein)
chain: SSSSSSAEWLVRLALLAVRLLAKAGDPEKAREALEIARRLAEQGNNEELEEEIEKVEEELNSSSS
B15: il10ra_site1_sap_25_mot_HHH_b1_06914_000000280_0001_1_18_H_._HHH_b2_00342_af2_0001_0000400017_0000001_0_0001 (protein)
chain: SSSDLEERVAELLFEALRLLAEGDEEEARELIEEAEHLARERNDEELLRYVEILKRFLESWSSSS
B16: il10ra_site1_sap_19_mot_HHH_b2_07144_000000289_0001_1_18_H_._HHH_b2_05779_0001_0000100016_0000002_0_0001 (protein)
chain: SSSSDRTQEIYELLREAVELHHEGNPEEAEKLLREAEELAEELGNRILEWVIKWLLEKLRQSSSS
B17: il10ra_site1_normal_mot_HHH_b2_00984_000000042_0001_1_20_H_._HHH_b2_07840_0001_0000400040_0000001_0 (protein)
chain: SSSSSSDLEELVEELEEAVREGDTERASQIAQEAVRLAHRLRDQEALQELWRLIQLVASSSSSSS
B18: il10ra_site1_normal_mot_HHH_b2_00984_000000042_0001_1_20_H_._HHH_b2_01469_af2_0001_0000200012_0000002_0 (protein)
chain: SSSSDEEELEEKVKELLEEAKRISDPRERAEVLQRATHHAIELQDAELLQEVWEVIRRLASSSSS

The target in the assay is il10ra, Q13651. Briefly: yeast display titration.
Take B1: the “apparent Kd” value was “inactive: no binding seen”.
Then B2, with “inactive: no binding seen”.
Then B3, with “inactive: no binding seen”; and B4, with “inactive: no binding seen”; and B5, with “inactive: no binding seen”.
Turning to B6, the “apparent Kd” value is “inactive: no binding seen”.
With B7 the entry was “inactive: no binding seen”.
Then B8, with “inactive: no binding seen”; and B9, with “inactive: no binding seen”.
With B10 the entry was “inactive: no binding seen”.
On to B11, for which the “apparent Kd” value is “inactive: no binding seen”.
With B12 the entry was “inactive: no binding seen”.
Then B13, with “inactive: no binding seen”; and B14, with “inactive: no binding seen”; and B15, with “inactive: no binding seen”.
With B16, the “apparent Kd” value is “inactive: no binding seen”.
Then B17, with “inactive: no binding seen”; and B18, with “inactive: no binding seen”.
